Laboratory results from publication doi:10.1101/2021.04.10.439283.
No constants are given. Whether binding was seen depends on the method and setting. Some binding calls cover weakened binding; strength is not graded here. Sequences can lack the tags named with a protein.

Legend:
Assay in all cases: two-hybrid
[1] = molecular target: T1, Dna2-Nuclease domain (451-900 aa) fused to lexA-DBD (S. cerevisiae) (UniProt P38859)
T1 sequence: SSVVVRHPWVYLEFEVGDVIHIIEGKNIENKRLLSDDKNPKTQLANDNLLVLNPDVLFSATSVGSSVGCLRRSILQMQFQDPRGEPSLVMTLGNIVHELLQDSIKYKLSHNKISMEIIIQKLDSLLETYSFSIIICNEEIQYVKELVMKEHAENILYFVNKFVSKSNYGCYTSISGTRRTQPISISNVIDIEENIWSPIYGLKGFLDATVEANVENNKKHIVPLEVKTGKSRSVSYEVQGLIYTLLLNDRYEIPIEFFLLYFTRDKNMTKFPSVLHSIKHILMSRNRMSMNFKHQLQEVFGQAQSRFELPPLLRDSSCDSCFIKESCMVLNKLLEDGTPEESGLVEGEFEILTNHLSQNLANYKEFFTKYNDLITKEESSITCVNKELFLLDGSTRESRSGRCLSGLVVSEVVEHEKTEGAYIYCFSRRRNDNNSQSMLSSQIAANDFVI

[2] = molecular target: T2, Mre11 fused to lexA-DBD (S. cerevisiae) (UniProt P32829)
T2 sequence: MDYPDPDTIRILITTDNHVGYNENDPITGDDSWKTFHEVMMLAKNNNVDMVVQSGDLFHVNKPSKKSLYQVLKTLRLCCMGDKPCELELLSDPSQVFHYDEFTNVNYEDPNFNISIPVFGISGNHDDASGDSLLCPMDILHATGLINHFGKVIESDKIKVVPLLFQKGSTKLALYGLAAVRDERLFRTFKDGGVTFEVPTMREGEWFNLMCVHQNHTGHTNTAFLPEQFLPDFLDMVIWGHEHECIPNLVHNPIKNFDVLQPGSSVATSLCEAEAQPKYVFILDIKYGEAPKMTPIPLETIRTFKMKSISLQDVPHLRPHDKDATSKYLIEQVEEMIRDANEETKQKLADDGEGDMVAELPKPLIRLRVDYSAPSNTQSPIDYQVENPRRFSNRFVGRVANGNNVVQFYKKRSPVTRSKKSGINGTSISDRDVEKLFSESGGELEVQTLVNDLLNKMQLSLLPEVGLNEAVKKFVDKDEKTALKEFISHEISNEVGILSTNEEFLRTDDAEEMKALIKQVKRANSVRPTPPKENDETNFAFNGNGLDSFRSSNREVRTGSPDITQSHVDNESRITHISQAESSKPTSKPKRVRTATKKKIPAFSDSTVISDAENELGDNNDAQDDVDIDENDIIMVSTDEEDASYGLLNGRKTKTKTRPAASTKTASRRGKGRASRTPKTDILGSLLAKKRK

[3] = molecular target: T3, Nej1 fused to lexA-DBD (S. cerevisiae) (UniProt Q06148)
T3 sequence: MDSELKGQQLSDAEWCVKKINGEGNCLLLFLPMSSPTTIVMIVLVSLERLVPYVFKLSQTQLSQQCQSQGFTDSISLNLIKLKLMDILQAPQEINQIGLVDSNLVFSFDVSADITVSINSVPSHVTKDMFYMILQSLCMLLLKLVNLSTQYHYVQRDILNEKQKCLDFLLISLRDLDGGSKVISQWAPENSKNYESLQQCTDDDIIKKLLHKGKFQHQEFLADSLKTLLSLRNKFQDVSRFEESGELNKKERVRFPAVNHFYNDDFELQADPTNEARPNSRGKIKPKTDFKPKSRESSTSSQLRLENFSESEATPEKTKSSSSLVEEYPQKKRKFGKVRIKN

[4] = molecular target: T4, Xrs2 fused to lexA-DBD (S. cerevisiae) (UniProt P33301)
T4 sequence: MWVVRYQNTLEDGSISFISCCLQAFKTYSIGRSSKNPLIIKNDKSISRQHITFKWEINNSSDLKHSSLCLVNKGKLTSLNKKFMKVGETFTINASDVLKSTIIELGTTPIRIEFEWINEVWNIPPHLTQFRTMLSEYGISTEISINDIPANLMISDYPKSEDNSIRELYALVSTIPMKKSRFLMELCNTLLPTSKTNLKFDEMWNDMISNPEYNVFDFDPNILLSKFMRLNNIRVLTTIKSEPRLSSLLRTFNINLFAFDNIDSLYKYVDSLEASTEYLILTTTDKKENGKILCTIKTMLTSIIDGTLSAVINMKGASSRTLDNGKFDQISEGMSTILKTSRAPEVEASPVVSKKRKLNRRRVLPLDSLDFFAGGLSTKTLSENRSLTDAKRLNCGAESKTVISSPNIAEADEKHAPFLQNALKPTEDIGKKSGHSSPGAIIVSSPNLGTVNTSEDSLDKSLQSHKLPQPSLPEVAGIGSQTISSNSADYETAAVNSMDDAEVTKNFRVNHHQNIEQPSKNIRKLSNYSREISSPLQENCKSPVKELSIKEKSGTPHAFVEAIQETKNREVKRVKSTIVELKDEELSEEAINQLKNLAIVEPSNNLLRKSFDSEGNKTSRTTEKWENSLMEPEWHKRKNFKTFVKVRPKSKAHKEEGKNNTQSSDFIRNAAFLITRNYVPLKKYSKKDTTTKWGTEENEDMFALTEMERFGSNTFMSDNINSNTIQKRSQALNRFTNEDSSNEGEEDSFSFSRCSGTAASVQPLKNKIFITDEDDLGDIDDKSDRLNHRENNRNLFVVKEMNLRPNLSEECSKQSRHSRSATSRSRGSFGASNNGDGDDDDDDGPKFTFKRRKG

Measured: binding

B1: Sae2 fused to HA-AD (protein, UniProt P46946 1-345)
chain: MVTGEENVYLKSSLSILKELSLDELLNVQYDVTTLIAKRVQALQNRNKCVLEEPNSKLAEILCHEKNAPQQSSQTSAGPGEQDSEDFILTQFDEDIKKESAEVHYRNENKHTVQLPLVTMPPNRHKRKISEFSSPLNGLNNLSDLEDCSDTVIHEKDNDKENKTRKLLGIELENPESTSPNLYKNVKDNFLFDFNTNPLTKRAWILEDFRPNEDIAPVKRGRRKLERFYAQVGKPEDSKHRSLSVVIESQNSDYEFAFDNLRNRSKSPPGFGRLDFPSTQEGNEDKKKSQEIIRRKTKYRFLMASNNKIPPYEREYVFKREQLNQIVDDGCFFWSDKLLQIYARC
binds: all assays above
